# The other results are listed elsewhere or left out. Small differences around the control level are noise.
# Protein sequences, listed by entry. Tags and fused reporters are not part of them. Lines headed by an entry give the natural chain unless they say otherwise; changes in a name come on top.
# UniProt Q8IY31, whole entry: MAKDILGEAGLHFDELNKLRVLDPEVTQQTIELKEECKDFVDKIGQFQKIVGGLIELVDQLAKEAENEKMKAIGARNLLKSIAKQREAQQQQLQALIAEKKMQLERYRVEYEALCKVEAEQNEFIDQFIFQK
# UniProt Q86YS3: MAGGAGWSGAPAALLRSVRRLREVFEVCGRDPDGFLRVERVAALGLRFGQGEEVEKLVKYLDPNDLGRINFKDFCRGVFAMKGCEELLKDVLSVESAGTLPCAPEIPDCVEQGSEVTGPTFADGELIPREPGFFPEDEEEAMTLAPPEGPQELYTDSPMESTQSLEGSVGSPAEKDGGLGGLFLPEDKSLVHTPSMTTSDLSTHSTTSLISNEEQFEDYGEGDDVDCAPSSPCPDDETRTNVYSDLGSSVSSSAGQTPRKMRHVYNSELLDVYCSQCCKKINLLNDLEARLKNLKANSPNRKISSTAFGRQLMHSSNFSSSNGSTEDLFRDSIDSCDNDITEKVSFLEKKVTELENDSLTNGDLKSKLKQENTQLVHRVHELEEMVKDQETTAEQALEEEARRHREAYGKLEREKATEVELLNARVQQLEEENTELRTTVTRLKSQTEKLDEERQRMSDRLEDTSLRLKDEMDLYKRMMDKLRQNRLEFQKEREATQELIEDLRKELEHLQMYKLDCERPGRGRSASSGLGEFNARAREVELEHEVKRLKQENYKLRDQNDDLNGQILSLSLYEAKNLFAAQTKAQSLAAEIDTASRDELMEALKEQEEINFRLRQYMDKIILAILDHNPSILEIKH
# UniProt Q8IYU8: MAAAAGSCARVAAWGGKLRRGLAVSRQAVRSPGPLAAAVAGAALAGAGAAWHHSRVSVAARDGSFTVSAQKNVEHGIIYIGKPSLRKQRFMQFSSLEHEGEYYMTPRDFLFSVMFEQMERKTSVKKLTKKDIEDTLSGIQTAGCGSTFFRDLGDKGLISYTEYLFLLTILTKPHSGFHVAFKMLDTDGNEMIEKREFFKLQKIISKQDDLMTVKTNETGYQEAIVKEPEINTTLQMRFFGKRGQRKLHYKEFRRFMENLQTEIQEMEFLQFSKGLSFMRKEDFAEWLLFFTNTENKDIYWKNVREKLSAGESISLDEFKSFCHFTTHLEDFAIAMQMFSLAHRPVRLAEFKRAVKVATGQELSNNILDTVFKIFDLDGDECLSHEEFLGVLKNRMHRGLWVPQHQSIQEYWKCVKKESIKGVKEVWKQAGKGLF
# UniProt Q8IUR0, whole entry: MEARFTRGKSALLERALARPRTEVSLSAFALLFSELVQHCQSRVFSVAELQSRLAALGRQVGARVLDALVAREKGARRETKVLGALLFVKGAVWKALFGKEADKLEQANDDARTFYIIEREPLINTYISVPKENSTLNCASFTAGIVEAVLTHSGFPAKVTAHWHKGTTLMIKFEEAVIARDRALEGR
# UniProt Q8IY63: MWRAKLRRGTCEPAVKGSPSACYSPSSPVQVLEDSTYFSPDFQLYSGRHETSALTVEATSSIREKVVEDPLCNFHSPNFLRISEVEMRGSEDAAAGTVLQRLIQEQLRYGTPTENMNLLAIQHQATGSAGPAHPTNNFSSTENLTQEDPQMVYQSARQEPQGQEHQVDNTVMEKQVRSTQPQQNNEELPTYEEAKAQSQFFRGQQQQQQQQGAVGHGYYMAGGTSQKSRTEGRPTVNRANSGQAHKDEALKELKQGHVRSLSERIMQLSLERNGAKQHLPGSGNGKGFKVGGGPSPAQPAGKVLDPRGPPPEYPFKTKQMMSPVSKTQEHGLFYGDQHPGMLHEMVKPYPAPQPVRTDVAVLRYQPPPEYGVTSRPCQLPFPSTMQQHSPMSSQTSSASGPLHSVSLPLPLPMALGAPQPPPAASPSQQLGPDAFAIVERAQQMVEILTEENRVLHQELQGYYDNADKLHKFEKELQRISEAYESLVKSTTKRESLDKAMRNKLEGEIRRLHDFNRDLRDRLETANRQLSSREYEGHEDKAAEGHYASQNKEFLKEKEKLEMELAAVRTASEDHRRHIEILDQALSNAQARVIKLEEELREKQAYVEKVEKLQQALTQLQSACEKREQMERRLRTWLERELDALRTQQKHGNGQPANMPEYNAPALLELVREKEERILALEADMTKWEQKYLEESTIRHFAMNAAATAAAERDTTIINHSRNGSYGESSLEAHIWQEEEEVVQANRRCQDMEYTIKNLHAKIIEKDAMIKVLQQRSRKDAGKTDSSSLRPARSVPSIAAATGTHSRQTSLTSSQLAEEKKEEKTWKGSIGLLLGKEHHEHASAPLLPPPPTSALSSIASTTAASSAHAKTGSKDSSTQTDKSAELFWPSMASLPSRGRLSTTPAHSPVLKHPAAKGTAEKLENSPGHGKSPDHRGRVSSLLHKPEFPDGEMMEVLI
# UniProt Q8IZT6: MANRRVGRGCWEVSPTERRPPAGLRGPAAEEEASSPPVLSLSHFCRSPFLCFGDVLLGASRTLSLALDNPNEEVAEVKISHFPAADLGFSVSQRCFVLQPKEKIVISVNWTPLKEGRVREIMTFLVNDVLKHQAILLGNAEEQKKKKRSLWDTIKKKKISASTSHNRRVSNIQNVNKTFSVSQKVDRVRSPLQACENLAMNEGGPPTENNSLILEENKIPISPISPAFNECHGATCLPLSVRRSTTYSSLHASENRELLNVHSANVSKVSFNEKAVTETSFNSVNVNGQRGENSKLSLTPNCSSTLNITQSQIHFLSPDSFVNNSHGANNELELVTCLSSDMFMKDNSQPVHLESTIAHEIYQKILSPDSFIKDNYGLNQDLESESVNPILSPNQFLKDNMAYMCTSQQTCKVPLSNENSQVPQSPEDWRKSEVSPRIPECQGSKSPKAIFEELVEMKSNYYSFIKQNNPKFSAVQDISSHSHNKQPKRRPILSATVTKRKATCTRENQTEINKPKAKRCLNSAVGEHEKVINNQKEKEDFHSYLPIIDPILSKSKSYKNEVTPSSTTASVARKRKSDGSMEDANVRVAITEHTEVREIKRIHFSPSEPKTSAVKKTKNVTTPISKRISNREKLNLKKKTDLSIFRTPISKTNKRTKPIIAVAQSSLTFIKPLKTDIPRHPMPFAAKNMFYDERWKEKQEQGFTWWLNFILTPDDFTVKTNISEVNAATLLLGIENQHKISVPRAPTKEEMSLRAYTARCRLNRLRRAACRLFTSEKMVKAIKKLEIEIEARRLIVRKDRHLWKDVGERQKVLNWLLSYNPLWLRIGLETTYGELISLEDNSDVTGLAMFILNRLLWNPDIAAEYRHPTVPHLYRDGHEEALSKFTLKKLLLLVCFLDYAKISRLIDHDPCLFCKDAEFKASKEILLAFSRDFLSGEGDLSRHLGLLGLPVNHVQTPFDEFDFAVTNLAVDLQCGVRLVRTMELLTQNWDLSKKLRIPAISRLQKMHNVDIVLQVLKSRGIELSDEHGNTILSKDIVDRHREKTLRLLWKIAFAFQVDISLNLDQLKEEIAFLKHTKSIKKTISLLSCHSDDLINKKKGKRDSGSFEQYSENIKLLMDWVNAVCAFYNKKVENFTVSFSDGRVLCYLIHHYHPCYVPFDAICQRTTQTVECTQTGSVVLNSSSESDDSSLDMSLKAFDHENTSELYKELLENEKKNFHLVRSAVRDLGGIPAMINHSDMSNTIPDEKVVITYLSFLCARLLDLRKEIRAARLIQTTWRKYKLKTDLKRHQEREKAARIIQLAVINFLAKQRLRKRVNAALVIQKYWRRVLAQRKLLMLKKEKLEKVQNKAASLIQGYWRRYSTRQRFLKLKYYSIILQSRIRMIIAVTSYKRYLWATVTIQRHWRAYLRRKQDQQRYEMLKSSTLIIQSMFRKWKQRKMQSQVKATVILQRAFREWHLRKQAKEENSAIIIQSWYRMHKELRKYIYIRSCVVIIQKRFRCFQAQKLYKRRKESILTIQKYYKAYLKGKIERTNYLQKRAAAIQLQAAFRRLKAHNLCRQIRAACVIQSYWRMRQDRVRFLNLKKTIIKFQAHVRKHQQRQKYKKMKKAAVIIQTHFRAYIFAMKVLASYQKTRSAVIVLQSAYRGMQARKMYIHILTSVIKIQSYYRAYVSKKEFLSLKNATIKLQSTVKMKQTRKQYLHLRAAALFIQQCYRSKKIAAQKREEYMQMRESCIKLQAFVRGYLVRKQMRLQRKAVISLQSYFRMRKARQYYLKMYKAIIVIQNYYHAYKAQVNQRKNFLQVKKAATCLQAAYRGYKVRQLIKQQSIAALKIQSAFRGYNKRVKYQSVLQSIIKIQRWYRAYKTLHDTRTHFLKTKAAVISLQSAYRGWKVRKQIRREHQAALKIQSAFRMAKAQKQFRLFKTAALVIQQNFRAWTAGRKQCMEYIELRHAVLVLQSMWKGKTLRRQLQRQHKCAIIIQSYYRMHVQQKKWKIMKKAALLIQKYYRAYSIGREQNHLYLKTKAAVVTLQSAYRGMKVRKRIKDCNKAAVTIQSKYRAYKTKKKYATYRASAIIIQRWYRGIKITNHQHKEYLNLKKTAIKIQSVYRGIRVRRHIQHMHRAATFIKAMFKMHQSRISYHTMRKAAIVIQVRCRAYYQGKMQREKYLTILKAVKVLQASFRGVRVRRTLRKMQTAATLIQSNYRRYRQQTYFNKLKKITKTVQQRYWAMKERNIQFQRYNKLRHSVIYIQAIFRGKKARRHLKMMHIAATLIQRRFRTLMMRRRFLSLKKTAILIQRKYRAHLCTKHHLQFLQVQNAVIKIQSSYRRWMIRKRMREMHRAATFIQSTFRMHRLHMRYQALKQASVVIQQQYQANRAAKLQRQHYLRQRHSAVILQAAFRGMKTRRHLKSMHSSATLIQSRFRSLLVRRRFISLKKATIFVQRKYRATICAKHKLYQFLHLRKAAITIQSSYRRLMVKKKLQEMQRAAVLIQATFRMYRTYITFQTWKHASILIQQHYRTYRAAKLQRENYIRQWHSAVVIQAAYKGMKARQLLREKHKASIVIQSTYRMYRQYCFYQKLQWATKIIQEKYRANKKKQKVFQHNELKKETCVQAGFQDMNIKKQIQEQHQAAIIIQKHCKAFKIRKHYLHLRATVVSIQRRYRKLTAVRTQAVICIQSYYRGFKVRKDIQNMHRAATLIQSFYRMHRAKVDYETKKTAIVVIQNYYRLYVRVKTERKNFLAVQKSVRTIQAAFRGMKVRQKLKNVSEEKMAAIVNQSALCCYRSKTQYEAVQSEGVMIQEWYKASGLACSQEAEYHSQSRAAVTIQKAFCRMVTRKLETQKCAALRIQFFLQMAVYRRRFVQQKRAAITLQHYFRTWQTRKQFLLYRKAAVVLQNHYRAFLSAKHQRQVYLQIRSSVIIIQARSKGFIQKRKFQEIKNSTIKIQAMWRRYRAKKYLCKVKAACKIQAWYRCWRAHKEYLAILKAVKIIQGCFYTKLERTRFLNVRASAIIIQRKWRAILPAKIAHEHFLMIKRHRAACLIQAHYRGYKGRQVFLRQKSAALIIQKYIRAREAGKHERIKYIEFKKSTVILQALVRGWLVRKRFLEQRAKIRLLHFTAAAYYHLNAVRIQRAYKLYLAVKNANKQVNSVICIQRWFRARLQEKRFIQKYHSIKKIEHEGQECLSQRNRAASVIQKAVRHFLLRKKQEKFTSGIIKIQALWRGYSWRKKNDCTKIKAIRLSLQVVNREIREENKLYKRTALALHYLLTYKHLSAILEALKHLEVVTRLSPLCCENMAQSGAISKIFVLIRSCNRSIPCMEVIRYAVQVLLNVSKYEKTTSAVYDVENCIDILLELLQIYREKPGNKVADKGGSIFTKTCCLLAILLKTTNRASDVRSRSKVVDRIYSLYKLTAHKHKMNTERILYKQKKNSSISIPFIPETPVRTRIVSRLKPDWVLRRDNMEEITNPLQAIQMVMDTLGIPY
# UniProt Q86X55: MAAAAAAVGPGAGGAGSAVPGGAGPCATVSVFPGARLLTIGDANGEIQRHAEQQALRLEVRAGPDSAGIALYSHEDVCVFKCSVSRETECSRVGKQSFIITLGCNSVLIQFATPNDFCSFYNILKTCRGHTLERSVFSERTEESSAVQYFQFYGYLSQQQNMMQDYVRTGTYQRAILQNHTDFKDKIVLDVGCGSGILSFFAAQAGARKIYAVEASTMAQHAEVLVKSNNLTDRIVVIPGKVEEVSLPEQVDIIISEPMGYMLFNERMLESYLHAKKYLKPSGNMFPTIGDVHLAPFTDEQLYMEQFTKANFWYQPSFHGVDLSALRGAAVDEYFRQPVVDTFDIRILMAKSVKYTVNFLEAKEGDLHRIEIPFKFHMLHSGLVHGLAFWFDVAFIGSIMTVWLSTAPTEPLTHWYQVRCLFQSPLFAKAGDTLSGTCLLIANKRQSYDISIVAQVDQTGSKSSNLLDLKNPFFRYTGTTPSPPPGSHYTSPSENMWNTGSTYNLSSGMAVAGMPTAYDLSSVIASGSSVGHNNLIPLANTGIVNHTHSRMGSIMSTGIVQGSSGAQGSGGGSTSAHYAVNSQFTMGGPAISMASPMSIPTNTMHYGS
# Compound: Cc1nc(Nc2ncc(C(=O)Nc3c(C)cccc3Cl)s2)cc(N2CCN(CCO)CC2)n1 [dasatinib]
# Assay: log2 fold change of tryptic peptide abundance, ligand vs vehicle (limited proteolysis) (log2 ratio); higher = more trypsin-susceptible (destabilized)
# Settings: ligand concentration: 5 uM; sample: K562 cleared lysate
row,Target,log2 fold change
1,"ARHGAP12 (peptide sequence: AFYVPAQYVK, peptide start residue: 61) (UniProt Q8IWW6)",0.275
2,"ZBED8 (peptide sequence: EKNPHTVAEK, peptide start residue: 105) (UniProt Q8IZ13)",0.0942
3,"IFT20 (peptide sequence: EAQQQQLQALIAEKK, peptide start residue: 87) (UniProt Q8IY31)",0.307
4,"RAB11FIP4 (peptide sequence: KISSTAFGR, peptide start residue: 302) (UniProt Q86YS3)",-0.488
5,"FTSJ3 (peptide sequence: KAEAVVNTVDISEREK, peptide start residue: 763) (UniProt Q8IY81)",0.53
6,"UniProt Q8IWZ8 (peptide sequence: EFLYYRK, peptide start residue: 230)",-0.389
7,"PHF13 (peptide sequence: AKPSNFLLDR, peptide start residue: 101) (UniProt Q86YI8)",-0.305
8,"UniProt Q8IYU8 (peptide sequence: NVEHGIIYIGKPSLRK, peptide start residue: 72)",-0.256
9,"PTOV1 (peptide sequence: VIANQQQVLQR, peptide start residue: 393) (UniProt Q86YD1)",-0.0793
10,"SRRM1 (peptide sequence: KVELSESEEDKGGK, peptide start residue: 459) (UniProt Q8IYB3)",0.323
11,"TRAPPC5 (peptide sequence: VLGALLFVK, peptide start residue: 82) (UniProt Q8IUR0)",-0.0527
12,"DGKH (peptide sequence: EMEDWISSLK, peptide start residue: 145) (UniProt Q86XP1)",-0.297
13,"AMOTL1 (peptide sequence: LQQALTQLQSACEKR, peptide start residue: 612) (UniProt Q8IY63)",-0.184
14,"ASPM (peptide sequence: YAVQVLLNVSKYEK, peptide start residue: 3318) (UniProt Q8IZT6)",-0.664
15,"CUL9 (peptide sequence: LQAYPEELIR, peptide start residue: 18) (UniProt Q8IWT3)",-0.435
16,"CARM1 (peptide sequence: SSNLLDLK, peptide start residue: 463) (UniProt Q86X55)",-0.245

# Rewritten with bars between the fields: entries from further up.
row | Target | log2 fold change
9 | PTOV1 (peptide sequence: VIANQQQVLQR, peptide start residue: 393) (UniProt Q86YD1) | -0.0793
10 | SRRM1 (peptide sequence: KVELSESEEDKGGK, peptide start residue: 459) (UniProt Q8IYB3) | 0.323
11 | TRAPPC5 (peptide sequence: VLGALLFVK, peptide start residue: 82) (UniProt Q8IUR0) | -0.0527
